The record followed here is paper PMC8990217, “DUX4 is a multifunctional factor priming human embryonic genome activation” (iScience, 2022).

Protein sequences, listed by entry. Tags and fused reporters are not part of them. Lines headed by an entry give the natural chain unless they say otherwise; changes in a name come on top. Chains listed by the source or under a name are the forms on record and can include a tag or linker.
KIX-binding motif mutant DUX4 tagged with HA (Q9UBX2, form named): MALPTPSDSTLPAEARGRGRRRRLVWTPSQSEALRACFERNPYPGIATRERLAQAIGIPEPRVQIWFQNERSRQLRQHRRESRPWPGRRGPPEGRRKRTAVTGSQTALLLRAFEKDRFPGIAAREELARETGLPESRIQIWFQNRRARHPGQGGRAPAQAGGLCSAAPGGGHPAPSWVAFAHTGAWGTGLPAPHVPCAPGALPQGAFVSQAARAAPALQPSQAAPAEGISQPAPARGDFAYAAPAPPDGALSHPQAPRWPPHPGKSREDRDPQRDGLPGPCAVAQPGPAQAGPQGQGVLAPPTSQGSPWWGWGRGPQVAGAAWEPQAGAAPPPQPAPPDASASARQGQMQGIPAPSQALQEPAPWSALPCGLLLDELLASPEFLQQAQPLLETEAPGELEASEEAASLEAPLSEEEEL
UniProt Q96RN5: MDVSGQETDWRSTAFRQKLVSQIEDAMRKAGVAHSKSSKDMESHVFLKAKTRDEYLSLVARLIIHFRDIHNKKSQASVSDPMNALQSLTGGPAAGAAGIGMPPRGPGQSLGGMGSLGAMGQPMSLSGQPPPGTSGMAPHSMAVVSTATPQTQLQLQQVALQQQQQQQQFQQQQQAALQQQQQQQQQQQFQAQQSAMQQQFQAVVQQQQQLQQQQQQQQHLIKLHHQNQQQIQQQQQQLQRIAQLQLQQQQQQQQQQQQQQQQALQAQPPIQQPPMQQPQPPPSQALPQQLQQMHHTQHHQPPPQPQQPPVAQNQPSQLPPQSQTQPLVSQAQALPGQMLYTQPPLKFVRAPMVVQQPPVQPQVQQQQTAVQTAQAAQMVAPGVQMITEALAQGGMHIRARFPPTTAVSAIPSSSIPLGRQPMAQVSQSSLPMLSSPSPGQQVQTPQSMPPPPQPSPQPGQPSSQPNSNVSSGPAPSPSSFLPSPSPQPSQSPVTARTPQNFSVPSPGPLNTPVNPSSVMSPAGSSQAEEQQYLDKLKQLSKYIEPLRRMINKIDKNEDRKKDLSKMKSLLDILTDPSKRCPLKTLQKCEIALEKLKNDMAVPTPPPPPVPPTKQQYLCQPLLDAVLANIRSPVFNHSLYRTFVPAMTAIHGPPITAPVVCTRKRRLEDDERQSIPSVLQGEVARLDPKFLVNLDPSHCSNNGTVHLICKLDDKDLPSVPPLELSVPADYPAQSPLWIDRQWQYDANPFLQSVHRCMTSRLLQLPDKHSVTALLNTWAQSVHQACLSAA

These are yes or no findings as the source states them, for the method shown. Binding seen in cells or lysates may run through a third protein. Some binding calls cover weakened binding; strength is not graded here.

The target of experiment [1] is KIX-binding motif mutant DUX4 tagged with HA (human) (UniProt Q9UBX2). The experiment can be described thus: co-IP; HEK-GripTite 293 MSR cells co-transfected with HA-tagged DUX4 and V5-tagged prey; lysates precipitated for HA-tag; immunoblots for V5 and HA. A general note: A western blot detects proteins with antibodies after separation by electrophoresis.
For experiment [2], the target named is wildtype DUX4 tagged with HA (human) (UniProt Q9UBX2). The experiment is described as above.

Take “MED15 tagged with V5 (from UniProt Q96RN5 1-788)”: the binding entry in experiment [1] is given as “no binding”; in experiment [2] it was “binds”.
